{"sequences": {"note": "By UniProt entry, the sequences of proteins in these tests, tags left out.", "UniProt P39447": "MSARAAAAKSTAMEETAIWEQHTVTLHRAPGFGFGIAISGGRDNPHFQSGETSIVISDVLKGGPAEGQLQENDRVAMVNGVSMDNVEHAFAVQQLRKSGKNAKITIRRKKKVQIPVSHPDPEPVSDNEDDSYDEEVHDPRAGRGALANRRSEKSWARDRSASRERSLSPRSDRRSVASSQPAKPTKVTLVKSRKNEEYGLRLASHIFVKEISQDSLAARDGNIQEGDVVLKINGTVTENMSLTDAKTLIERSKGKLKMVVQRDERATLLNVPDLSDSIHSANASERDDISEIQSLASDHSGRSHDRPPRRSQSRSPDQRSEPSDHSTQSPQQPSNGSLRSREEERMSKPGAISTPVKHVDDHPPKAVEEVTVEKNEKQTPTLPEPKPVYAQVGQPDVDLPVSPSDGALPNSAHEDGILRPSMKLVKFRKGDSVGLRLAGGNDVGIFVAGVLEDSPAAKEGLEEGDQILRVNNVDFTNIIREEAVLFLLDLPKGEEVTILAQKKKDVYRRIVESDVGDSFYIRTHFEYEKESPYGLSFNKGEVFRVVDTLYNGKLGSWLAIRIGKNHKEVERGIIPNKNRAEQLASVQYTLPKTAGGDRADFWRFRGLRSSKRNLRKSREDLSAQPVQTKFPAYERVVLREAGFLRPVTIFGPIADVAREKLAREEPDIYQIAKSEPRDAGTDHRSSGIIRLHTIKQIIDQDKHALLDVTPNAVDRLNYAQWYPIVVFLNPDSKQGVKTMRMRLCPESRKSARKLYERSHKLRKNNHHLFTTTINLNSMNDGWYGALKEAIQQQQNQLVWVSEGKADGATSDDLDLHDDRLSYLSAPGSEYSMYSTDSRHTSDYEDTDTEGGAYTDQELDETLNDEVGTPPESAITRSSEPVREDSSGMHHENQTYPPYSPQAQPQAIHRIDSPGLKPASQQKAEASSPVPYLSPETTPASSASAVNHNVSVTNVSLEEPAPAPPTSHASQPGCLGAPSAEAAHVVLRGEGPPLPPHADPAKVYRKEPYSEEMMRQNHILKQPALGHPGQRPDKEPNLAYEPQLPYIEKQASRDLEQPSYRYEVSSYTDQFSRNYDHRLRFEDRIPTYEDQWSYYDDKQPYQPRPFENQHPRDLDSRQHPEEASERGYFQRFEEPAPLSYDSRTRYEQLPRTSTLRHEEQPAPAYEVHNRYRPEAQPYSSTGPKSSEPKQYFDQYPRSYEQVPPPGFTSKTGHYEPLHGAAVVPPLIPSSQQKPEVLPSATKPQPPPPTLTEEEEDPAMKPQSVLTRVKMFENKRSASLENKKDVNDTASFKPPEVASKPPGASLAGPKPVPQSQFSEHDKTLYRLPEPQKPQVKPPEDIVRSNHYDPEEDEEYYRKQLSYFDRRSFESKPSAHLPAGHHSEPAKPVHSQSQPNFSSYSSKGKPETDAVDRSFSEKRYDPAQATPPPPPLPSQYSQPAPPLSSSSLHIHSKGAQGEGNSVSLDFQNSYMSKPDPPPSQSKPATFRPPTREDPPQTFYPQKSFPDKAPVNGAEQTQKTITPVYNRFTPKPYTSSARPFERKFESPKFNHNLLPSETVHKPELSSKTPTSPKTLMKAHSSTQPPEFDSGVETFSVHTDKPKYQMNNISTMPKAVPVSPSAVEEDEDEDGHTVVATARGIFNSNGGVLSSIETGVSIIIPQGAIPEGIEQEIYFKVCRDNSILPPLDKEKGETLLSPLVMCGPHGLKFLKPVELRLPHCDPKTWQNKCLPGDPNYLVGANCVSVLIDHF"}, "source": "paper PMC4806907", "target": "Zona occludens (ZO)-1 (mouse (endogenous in CLDE cells)) (UniProt P39447)", "assay": "co-IP; endogenous proteins in lysates of CLDE cells cultured for 1 week in the presence of Ca2+; antibodies against PKP1 or ZO-1 (normal rabbit IgG as control) on protein G magnetic beads, incubated with samples 1 h at 4°C; western blotting", "note": "These are yes or no findings as the source states them, for the method shown. Binding seen in cells or lysates may run through a third protein. Some binding calls cover weakened binding; strength is not graded here."}
{"binder": "Plakophilin (PKP)1 (protein, UniProt P97350 1-728) MNHSPLKTALAYECFQDQDNSTLALPSDQKMKTGTSGRQRVQEQVMMTVKRQKSKSSQSSTLSHSNRGSMYDGLADNYNNYGTTSRSSYFSKFQAGNGSWGYPIYNGTLKREPDNRRFSSYSQMENWSRHYPRGSCATPGAGSDICFMQKIKASRSEPDLYCDPRGTLRKGTLGSKGHKTTQNRCSFYSTCSGQKAVKKCPVRPPSCTSKQDPVYVPPISCNKDLSFGHSRASSKICSEDIECSGLTIPKAVQYLCSQDEKYQAIGAYYIQHTCFQDESAKQQVYQLGGICKLVDLLRSPNQNVQQAAAGALRNLVFRSTPNKLETRRQNGIREAVSLLRRSGSTEIQKQLTGLLWNLSSTDELKEELVADALPVLTDRVIIPFSGWCDGNSNMSREVVDPEVFFNATGCLRNLSSADAGRQTMRNYSGLIDSLMAYVQNCVAASRCDDKSVENCMCILHNLSYRLDAEVPTRYRQLEYNTRNAYTEKSSTGCFSNRGDKMMNNNYDCPLPEEETNPKGSSWLYHSDAIRTYLNLMGKSKKDATLEACAGALQNLTASKGLMSNGMSQLIGIKEKGLPQIARLLQSGNSDVVRSGASLLSNMSRHPVLHRVMGNQVFPEVTRLLTSHTGNTSNSEDILSSACYTVRNLMTSQPQMAKQYFSNSMLNNVFNLCRNTASSPKAAEAARLLLSDMWASKELQSVLRQQGFDRNMMGNIAGANNLRNFTSRF", "values": [{"measurement": "binding", "value": "binds"}]}
